The text below walks through data of article PMC9922281.

These are yes or no findings as the source states them, for the method shown. Binding seen in cells or lysates may run through a third protein. Binding can be weak; no strength is given.

For this experiment, the target named is T1, dermatopontin (DPT) of the YAP domain mapping (UniProt Q07507).
T1 sequence: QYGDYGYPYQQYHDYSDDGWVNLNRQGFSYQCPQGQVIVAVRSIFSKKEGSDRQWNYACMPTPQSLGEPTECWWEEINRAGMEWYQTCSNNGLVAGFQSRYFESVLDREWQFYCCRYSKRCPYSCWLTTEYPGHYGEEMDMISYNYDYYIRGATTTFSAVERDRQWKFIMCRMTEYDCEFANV
Description: co-IP; GFP-tagged YAP and YAP domain-deletion mutants with DPT in 293T cells; western blot. (In general: In western blotting, separated proteins are transferred to a membrane and probed.)

Consider GFP-tagged YAP (from UniProt P46937-2), for which the binding result was “binds”.
